Test results as given in publication doi:10.1101/2021.10.06.463336.
These are yes or no findings as the source states them, for the method shown. In cells and extracts the contact can be indirect. A yes stands for co-enrichment or nearness to the bait. Other partners may have been found.

Biological target: nsP3-mScarlet (Sindbis virus)
Experiment: affinity purification with mass spectrometry

B1: G3BP2 (protein, UniProt Q9UN86 1-482)
chain: MVMEKPSPLLVGREFVRQYYTLLNKAPEYLHRFYGRNSSYVHGGVDASGKPQEAVYGQNDIHHKVLSLNFSECHTKIRHVDAHATLSDGVVVQVMGLLSNSGQPERKFMQTFVLAPEGSVPNKFYVHNDMFRYEDEVFGDSEPELDEESEDEVEEEQEERQPSPEPVQENANSGYYEAHPVTNGIEEPLEESSHEPEPEPESETKTEELKPQVEEKNLEELEEKSTTPPPAEPVSLPQEPPKAFSWASVTSKNLPPSGTVSSSGIPPHVKAPVSQPRVEAKPEVQSQPPRVREQRPRERPGFPPRGPRPGRGDMEQNDSDNRRIIRYPDSHQLFVGNLPHDIDENELKEFFMSFGNVVELRINTKGVGGKLPNFGFVVFDDSEPVQRILIAKPIMFRGEVRLNVEEKKTRAARERETRGGGDDRRDIRRNDRGPGGPRGIVGGGMMRDRDGRGPPPRGGMAQKLGSGRGTGQMEGRFTGQRR
B1 was tested, and the binding was “binds”.
